Values quoted from earlier work, collected in patent US11992013B2, “Feral hog toxicant” (priority 2019, dated 2024).
At least one compound was matched to its structure with a doubt left.

System: pigs
Conditions: added to microencapsulated sodium nitrite-containing bait; cited from earlier work

## COc1ccc2[nH]c([S+]([O-])Cc3ncc(C)c(OC)c3C)nc2c1 (stereo not shown) [omeprazole]
  effect upon toxicity and subsequent time to death for pigs: slight, but not significant
